{"source": "the supplement of paper PMC10338343", "note": "± gives the standard deviation. This is one part of the list. Many entries were measured with a wide error."}
{"test_system": "EfPiwi piRISC loaded with L1MC piRNA (26 nt)", "experiment": "pre-steady-state target cleavage rate (min^-1); guide: L1MC piRNA 5'p-UAACUAAAUACUAUGCAAGCUGUAGG; MIWI and MILI are mouse PIWI proteins and EfPiwi is from a freshwater sponge; tags in brackets are library labels; higher = faster piRNA-guided slicing of the target", "settings": "auxiliary factor: none (no Gtsf1)", "procedure,_shortened": "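The pre-steady-state cleavage rate was derived from a burst-and-steady-state fit of Cleave-'n-Seq data. For these assays, 1 nM active affinity-purified piRISC loaded with a single synthetic guide was mixed with […] a transcribed, DNA-blocked target RNA library in HEPES–potassium acetate buffer at 33 °C, with or without 500 nM GTSF1 partner protein, for 0–8 or 0–960 min. Sequencing counts of uncleaved targets were normalised to depth and to weakly complementary targets, and k3 was capped at 0.0001 min^-1 after three trials were pooled.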"}
{"sequence": "UCCUGGAUGUCGAACGUAUGUAUCUAGUUA", "pre-steady-state target cleavage rate": "0.000136 ± 0.033"}
{"sequence": "UCCUGGAUGUCGAACGAUAGUAUUUAGAAA [g4:g14:cont:t1A]", "pre-steady-state target cleavage rate": "< 0.0001"}
{"sequence": "UCCUCCAACAGCUUGCAUACUAUUUAGUUA", "pre-steady-state target cleavage rate": "0.00132 ± 0.0057"}
{"sequence": "UCCUGGAUGAGCUAGCAUAGUAAUUAGUUA", "pre-steady-state target cleavage rate": "0.000282 ± 0.029"}
{"sequence": "UCCUGGAUGUCGAAGCACUAGUAUUUAGUUA", "pre-steady-state target cleavage rate": "0.000247 ± 0.023"}
{"sequence": "UCCUGGUAGAGCUUGCAUAGUUUUUAGUUA", "pre-steady-state target cleavage rate": "0.00122 ± 0.0086"}
